PubChem BioAssay AID1259254 | NCATS – 2017

Purpose: 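Genome-wide screen for genes that prevent DNA re-replication in cancer cells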 (primary screen)
Cell system: human HCT116 colorectal cancer cells
Reagent: single siRNA against human genes
Time to read-out: 3 days
Detection: 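Imaged Hoechst DNA stain sorts each cell into a cycle phase by DNA amount; per plate, G2 fraction set to 0% for non-targeting and 100% for GMNN siRNA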
Reading the numbers: G2 robust z-score and G2 cells, % of GMNN control: higher = more G2 cells, more excess DNA replication; raw share of cells in G2: higher = larger share of cells with G2 DNA content
Active means: 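Active siRNAs have a G2 robust z of 5 or more median absolute deviations over the median, which in these data means about 38% or higher of GMNN control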
Here is an unselected part of about 59,000 reagents. About 1,550 of all reagents (2.6%) were called active. 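G2 share is only a proxy for re-replication; each gene was hit by three separate siRNAs, and active genes were retested.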 Raw values vary from plate to plate and are shown uncorrected. Reagent sequences are not shown. Not given: the amount of reagent.

gene knocked down	PubChem SID	G2 robust z-score	G2 cells, % of GMNN control	raw share of cells in G2 (%)	Outcome
NSUN3 (NOP2/Sun RNA methyltransferase 3)	SID160731702	-0.125	2.09	4.98	inactive
NSUN3 (NOP2/Sun RNA methyltransferase 3)	SID160747243	0.662	7.62	7.04	inactive
NSUN3 (NOP2/Sun RNA methyltransferase 3)	SID160747244	-0.407	0.105	5.69	inactive
ARRDC1-AS1 (ARRDC1 antisense RNA 1)	SID160724658	0.612	7.27	5.28	inactive
ARRDC1-AS1 (ARRDC1 antisense RNA 1)	SID160735138	0.492	6.43	4.96	inactive
ARRDC1-AS1 (ARRDC1 antisense RNA 1)	SID160753138	-0.407	0.102	4.13	inactive
AKNA (AT-hook transcription factor)	SID160750472	1.47	13.3	9.96	inactive
AKNA (AT-hook transcription factor)	SID160750473	0.47	6.27	7.05	inactive
AKNA (AT-hook transcription factor)	SID160750474	-0.124	2.09	2.95	inactive
FOXD4L4 (forkhead box D4 like 4)	SID160765112	1.94	16.6	13.1	inactive
FOXD4L4 (forkhead box D4 like 4)	SID160765113	1.02	10.2	8.93	inactive
FOXD4L4 (forkhead box D4 like 4)	SID160765114	-0.275	1.03	4.66	inactive
FGD3 (FYVE, RhoGEF and PH domain containing 3)	SID160753451	-0.519	-0.684	5.35	inactive
FGD3 (FYVE, RhoGEF and PH domain containing 3)	SID160753452	-0.967	-3.84	3.32	inactive
FGD3 (FYVE, RhoGEF and PH domain containing 3)	SID160753453	-0.212	1.48	5.04	inactive
PTGDR (prostaglandin D2 receptor)	SID160715290	1.09	10.6	9.64	inactive
PTGDR (prostaglandin D2 receptor)	SID160715291	1.28	12	8.71	inactive
PTGDR (prostaglandin D2 receptor)	SID160715292	-0.606	-1.3	2.87	inactive
LSM5	SID160730870	-0.972	-3.87	2.72	inactive
LSM5	SID160736776	0.521	6.63	6.39	inactive
LSM5	SID160736777	0.319	5.21	8.53	inactive
RNF10 (ring finger protein 10)	SID160723443	-0.762	-2.4	4.25	inactive
RNF10 (ring finger protein 10)	SID160723444	1.07	10.5	8.33	inactive
RNF10 (ring finger protein 10)	SID160723445	3.24	25.7	12.8	inactive
ORC6 (origin recognition complex subunit 6)	SID160736638	-0.187	1.65	7.03	inactive
ORC6 (origin recognition complex subunit 6)	SID160736639	-0.0229	2.81	5.09	inactive
ORC6 (origin recognition complex subunit 6)	SID160736640	-0.11	2.2	4.62	inactive
JRKL (JRK like)	SID160720613	-1.21	-5.54	2.72	inactive
JRKL (JRK like)	SID160720614	-0.42	0.0116	4.54	inactive
JRKL (JRK like)	SID160720615	0.322	5.23	7.1	inactive
B3GALNT1	SID160720636	-0.799	-2.66	4.33	inactive
B3GALNT1	SID160720637	-0.509	-0.611	4.26	inactive
B3GALNT1	SID160720638	0.921	9.45	8.09	inactive
DNAAF19 (dynein axonemal assembly factor 19)	SID160765846	0.54	6.77	6.09	inactive
DNAAF19 (dynein axonemal assembly factor 19)	SID160765847	0.545	6.8	6.36	inactive
DNAAF19 (dynein axonemal assembly factor 19)	SID160765848	-0.386	0.254	4.74	inactive
SRSF3 (serine and arginine rich splicing factor 3)	SID160716608	0.0742	3.49	5.11	inactive
SRSF3 (serine and arginine rich splicing factor 3)	SID160716609	6.75	50.5	22.7	active
SRSF3 (serine and arginine rich splicing factor 3)	SID160716610	4.39	33.8	16.1	inactive
FERMT3 (FERM domain containing kindlin 3)	SID160751339	-0.968	-3.85	2.83	inactive
FERMT3 (FERM domain containing kindlin 3)	SID160751340	-0.288	0.943	3.74	inactive
FERMT3 (FERM domain containing kindlin 3)	SID160751341	-0.0518	2.6	3.19	inactive
CRB1 (crumbs cell polarity complex component 1)	SID160736249	-0.432	-0.0695	6.34	inactive
CRB1 (crumbs cell polarity complex component 1)	SID160736250	-0.822	-2.82	3.21	inactive
CRB1 (crumbs cell polarity complex component 1)	SID160736251	-0.504	-0.578	3.67	inactive
GTF3C5 (general transcription factor IIIC subunit 5)	SID160721953	-0.539	-0.824	4.41	inactive
GTF3C5 (general transcription factor IIIC subunit 5)	SID160721954	-0.529	-0.756	5	inactive
GTF3C5 (general transcription factor IIIC subunit 5)	SID160721955	1.64	14.5	11.1	inactive
INSC (INSC spindle orientation adaptor protein)	SID160733188	-0.637	-1.51	3.99	inactive
INSC (INSC spindle orientation adaptor protein)	SID160765664	-0.151	1.91	4.43	inactive
INSC (INSC spindle orientation adaptor protein)	SID160765665	3.04	24.3	14	inactive
MZT2B (mitotic spindle organizing protein 2B)	SID160734970	0.0341	3.21	5.71	inactive
MZT2B (mitotic spindle organizing protein 2B)	SID160734971	-1.32	-6.32	0.649	inactive
MZT2B (mitotic spindle organizing protein 2B)	SID160750041	1.79	15.6	10.9	inactive
OR6C70 (olfactory receptor family 6 subfamily C member 70)	SID160766491	-0.508	-0.608	3.56	inactive
OR6C70 (olfactory receptor family 6 subfamily C member 70)	SID160766492	-0.569	-1.04	2.95	inactive
OR6C70 (olfactory receptor family 6 subfamily C member 70)	SID160766493	0.164	4.12	6.4	inactive
RASL11B (RAS like family 11 member B)	SID160731766	-1.04	-4.34	2.81	inactive
RASL11B (RAS like family 11 member B)	SID160748386	-1.06	-4.46	2.6	inactive
RASL11B (RAS like family 11 member B)	SID160748387	-0.0192	2.83	6.82	inactive
GP9 (glycoprotein IX platelet)	SID160723793	-0.889	-3.29	3.31	inactive
GP9 (glycoprotein IX platelet)	SID160730992	3.43	27.1	12.9	inactive
GP9 (glycoprotein IX platelet)	SID160772743	-0.69	-1.89	2.71	inactive
SAMD10 (sterile alpha motif domain containing 10)	SID160724827	-0.502	-0.566	2.37	inactive
SAMD10 (sterile alpha motif domain containing 10)	SID160757849	-0.99	-4	2.67	inactive
SAMD10 (sterile alpha motif domain containing 10)	SID160757850	5.75	43.5	16.9	active
NRG1 (neuregulin 1)	SID160723855	-0.613	-1.34	4.67	inactive
NRG1 (neuregulin 1)	SID160723856	0.877	9.14	7.44	inactive
NRG1 (neuregulin 1)	SID160727839	-0.568	-1.03	3.12	inactive

Targets listed so far whose gene name begins with B or b (3):
gene knocked down	PubChem SID	G2 robust z-score	G2 cells, % of GMNN control	raw share of cells in G2 (%)	Outcome
B3GALNT1	SID160720636	-0.799	-2.66	4.33	inactive
B3GALNT1	SID160720637	-0.509	-0.611	4.26	inactive
B3GALNT1	SID160720638	0.921	9.45	8.09	inactive
